According to PubChem BioAssay AID504327 (National Center for Advancing Translational Sciences (NCATS), 2011):
The whole screen tested about 390,000 compounds, of which about 820 (0.21%) were called active. The inconclusive results got no clear call from the source; some entries with a clear call stand among them for comparison. Calls follow the shape of the dose curve; as a rule, active = well fitted inhibition curve with a large enough effect; inconclusive = small, poorly fitted or top-dose-only effect, or another doubt; inactive = no such curve, though single readings can be large or run the other way. Potencies beside an inconclusive call are fits to weak or partial responses and may not hold up.

Amino acid sequences for entries named in this document (tags omitted).
UniProt Q92830, whole entry, looked up: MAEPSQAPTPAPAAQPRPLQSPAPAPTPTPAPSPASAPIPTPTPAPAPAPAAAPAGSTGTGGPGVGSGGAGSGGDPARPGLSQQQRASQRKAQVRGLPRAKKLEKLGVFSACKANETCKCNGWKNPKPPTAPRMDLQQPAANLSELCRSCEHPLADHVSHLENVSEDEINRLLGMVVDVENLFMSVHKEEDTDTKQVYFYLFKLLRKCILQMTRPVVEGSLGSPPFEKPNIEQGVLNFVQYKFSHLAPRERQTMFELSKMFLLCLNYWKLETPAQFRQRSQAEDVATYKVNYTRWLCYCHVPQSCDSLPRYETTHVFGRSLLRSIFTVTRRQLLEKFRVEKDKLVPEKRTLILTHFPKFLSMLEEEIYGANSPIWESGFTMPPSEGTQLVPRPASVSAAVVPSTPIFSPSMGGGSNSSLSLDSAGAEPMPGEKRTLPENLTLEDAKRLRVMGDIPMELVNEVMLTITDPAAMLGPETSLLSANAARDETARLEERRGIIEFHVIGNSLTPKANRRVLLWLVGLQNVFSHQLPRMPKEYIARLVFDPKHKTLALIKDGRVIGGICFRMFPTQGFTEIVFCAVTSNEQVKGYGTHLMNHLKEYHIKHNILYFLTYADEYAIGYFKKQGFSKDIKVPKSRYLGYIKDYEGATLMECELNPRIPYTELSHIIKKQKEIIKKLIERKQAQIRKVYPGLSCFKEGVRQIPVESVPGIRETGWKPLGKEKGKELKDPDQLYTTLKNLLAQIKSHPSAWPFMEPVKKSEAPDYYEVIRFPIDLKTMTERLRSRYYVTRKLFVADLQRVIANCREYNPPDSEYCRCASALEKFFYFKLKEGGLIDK

The compounds below were run against Histone acetyltransferase KAT2A (Homo sapiens) (UniProt Q92830) (assay: qHTS Assay for Inhibitors of GCN5L2). Details: GCN5L2 HAT assay, ThioGlo1 CoA-SH fluorescence; activity change, negative = inhibition: at 58.9 µM (top of the series) unless noted.
Summary of the method: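 qHTS, 1536-well. 20nM enzyme, pH 7.5 HEPES/EDTA/Tween-20 buffer; 15 min compound preinc., RT. Start: 75uM H3(1-25), 70uM AcCoA, 50uM ThioGlo1. Read Ex340/Em540 at t=0 (autofluorescence flag) and t=20 min.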
% is scaled to controls: 0 for no effect and ±100 for the full control effect; potency is read from the fitted curve at half-maximal effect.

| SMILES | Potency | activity change, negative = inhibition |
| --- | --- | --- |
| COc1ccccc1NC(=O)CN1CCN(C(=O)C2CCCO2)CC1 (stereo not drawn) | inconclusive: 3.16 µM [inhibitor, partial curve] | – |
| O=C(c1ccccc1F)N1CCCc2ccccc21 | inconclusive: 5.01 µM [inhibitor, single point] | – |
| N#CCC(=O)Nc1ccc(C(=O)NNC(=S)NC2CC2)cc1 | inconclusive: 4.47 µM [inhibitor, single point] | – |
| CC(=O)N1CC[n+]2c(-c3ccc([N+](=O)[O-])cc3)csc21 | inconclusive: 22.4 µM [inhibitor, single point] | – |
| COc1cc([N+](=O)[O-])ccc1NC(=O)NCC1CCN(Cc2ccc(Cl)cc2)CC1 | inconclusive: 0.141 µM [inhibitor, full curve, poor fit] | – |
| CCCN(CC(=O)Nc1ccccc1C)C(=O)C1CC(=O)N(Cc2ccccc2)C1 (stereo not drawn) | inconclusive: 25.1 µM [inhibitor, single point] | – |
| COc1ccccc1CN1CC(C(=O)NCc2cccnc2)CC1=O (stereo not drawn) | inconclusive: 3.16 µM [inhibitor, single point] | – |
| O=C(C[n+]1cc(-c2ccc(Cl)cc2)n2c1CCC2)Nc1nc(-c2ccc(F)cc2)cs1 | – | inactive: 0.265% |
| Cc1c(C(=O)O)c(O)cc2c1C(=O)c1c(O)c([C@H]3O[C@H](CO)[C@@H](O)[C@H](O)[C@H]3O)c(O)c(O)c1C2=O | inconclusive: 39.8 µM [inhibitor, single point] | – |
| Cc1nc2ccc(NC(=O)c3cc([N+](=O)[O-])cc([N+](=O)[O-])c3Cl)cc2s1 | inconclusive: 10 µM [inhibitor, partial curve] | – |
| Cc1ccc(Nc2nc(N)nc(CSC(=S)N3CCOCC3)n2)cc1 | inconclusive: 0.794 µM [inhibitor, partial curve, poor fit] | – |
| N#C/C(=N\Nc1ccccc1Cl)C(=O)c1ccccc1 | inconclusive: 1 µM [inhibitor, partial curve, poor fit] | – |
| O=C(NCCN1CCCCC1)c1ccc(F)cc1Cl | inconclusive: 8.91 µM [inhibitor, partial curve, poor fit] | – |
| COc1ccc(C(=O)CCC(=O)N2CCN(c3cccc(Cl)c3)CC2)cc1 | inconclusive: 0.794 µM [inhibitor, single point] | – |
| CCc1noc(C)c1C(=O)OCC(=O)NCc1ccccc1 | – | inactive: 0.466% |
| COc1cccc(C(=O)Nc2sc3c(c2C(=O)O)CCCC3)c1 | inconclusive: 8.91 µM [inhibitor, single point] | – |
| Cc1cccc(Nc2ncnc3c2cnn3C)c1 | – | inactive: -2.01% |
| COc1ccc(C(C(=O)NC2CCCCC2)N(C(=O)CCl)c2ccc(Cl)cc2)cc1 (stereo not drawn) | – | inactive: -5.12% |

Whole records from above. Values in the order: Potency	activity change, negative = inhibition
CC(=O)N1CC[n+]2c(-c3ccc([N+](=O)[O-])cc3)csc21 as listed: inconclusive: 22.4 µM [inhibitor, single point]	–
CCCN(CC(=O)Nc1ccccc1C)C(=O)C1CC(=O)N(Cc2ccccc2)C1 (stereo not drawn) as listed: inconclusive: 25.1 µM [inhibitor, single point]	–
